Source: PMC8128147
No constants are given. Whether binding was seen depends on the method and setting. In cells and extracts the contact can be indirect.

Biological target: T1, occludin (human (endogenous in Caco-2; cell line not named for the co-IP)) (UniProt Q16625)
T1 sequence: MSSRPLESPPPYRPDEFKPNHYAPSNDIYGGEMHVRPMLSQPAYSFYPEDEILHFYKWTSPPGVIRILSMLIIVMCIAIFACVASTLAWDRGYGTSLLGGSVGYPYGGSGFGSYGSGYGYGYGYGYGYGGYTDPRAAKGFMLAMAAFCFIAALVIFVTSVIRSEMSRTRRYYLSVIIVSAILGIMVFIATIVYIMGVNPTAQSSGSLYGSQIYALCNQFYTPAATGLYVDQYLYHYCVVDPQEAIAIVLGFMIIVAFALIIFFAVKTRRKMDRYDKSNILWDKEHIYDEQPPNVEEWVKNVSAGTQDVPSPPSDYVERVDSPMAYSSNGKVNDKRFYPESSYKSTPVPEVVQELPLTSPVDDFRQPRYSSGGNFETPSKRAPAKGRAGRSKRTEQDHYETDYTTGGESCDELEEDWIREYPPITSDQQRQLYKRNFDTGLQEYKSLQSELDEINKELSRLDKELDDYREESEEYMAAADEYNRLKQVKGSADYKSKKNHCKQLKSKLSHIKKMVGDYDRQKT
Test: co-IP; endogenous proteins; pre-cleared cell extracts (1 mg protein) in 50 mM Tris-HCl pH 7.4, 150 mM NaCl, 1 mM EDTA, 1% NP-40; IP with antibodies to E-cadherin, claudin-1 or occludin overnight at 4°C, Protein G beads; control IP with IgG/unrelated serum; Western blot

binding: no binding
Substance: γ-tubulin
